Taken from: PubChem BioAssay AID652272 (Drosophila RNAi Screening Center, 2013)

Assay: 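Finding fly genes that regulate Hedgehog signal transduction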 (primary screen)
Cell system: Drosophila clone 8 (Cl8) cells
Reagents: long dsRNA against Drosophila genes
Measurement: 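Firefly light from a Hedgehog-responsive ptc promoter reporter and Renilla reference light, both read on a plate reader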
Scale: firefly Hh reporter signal: higher = more ptc reporter light; Renilla reference signal: higher = more Renilla control light
Call rule: 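Hit when the z-score averaged over two replicates is under -2 or over +3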
Calls: active = hit: reporter lowered or raised; inactive = not a hit
The deposit covers about 21,000 reagents; below is a random part of those that have a named target and a result. Over the whole deposit, 503 (2.4%) got an active call. 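Raw plate light values, not normalised; calls rest on replicate z-scores that were not deposited; hits include reporter decreases as well as increases.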 A plus sign joins genes that one reagent is predicted to hit. The record does not give: the amount of reagent, the time to read-out.

The first 2 entries, ahead of the listing:
no.	target	DRSC id	firefly Hh reporter signal, replicate 1	firefly Hh reporter signal, replicate 2	firefly Hh reporter signal, replicate 3	Renilla reference signal, replicate 1	Renilla reference signal, replicate 2	call
1	psd	DRSC03131	1.67e5	54402		4198	5920	inactive
2	CG1394	DRSC19539	84763	52806		4849	1448	inactive

Results, from the first entry:
no.	target	DRSC id	firefly Hh reporter signal, replicate 1	firefly Hh reporter signal, replicate 2	firefly Hh reporter signal, replicate 3	Renilla reference signal, replicate 1	Renilla reference signal, replicate 2	call
1	psd	DRSC03131	1.67e5	54402		4198	5920	inactive
2	CG1394	DRSC19539	84763	52806		4849	1448	inactive
3	Rrp45	DRSC20198	44649	1.41e5		999	5785	inactive
4	Socs44A	DRSC06828	1.06e5	61666		2883	5689	inactive
5	CG14644	DRSC12230	1.04e5	1.36e5		3699	24573	inactive
6	verm	DRSC11038	85964	84736		3777	3418	inactive
7	CG14742	DRSC14962	1.30e5	1.75e5		3781	4326	inactive
8	MED1	DRSC11808	1.32e5	1.17e5		5440	4683	inactive
9	sty	DRSC08737	1.34e5	64980		4356	5882	inactive
10	defl	DRSC10300	87731	44886		3400	568	inactive
11	Acadvl	DRSC07022	1.30e5	93298		6097	4412	inactive
12	Pax	DRSC01703	1.36e5	2.45e5		4051	12274	inactive
13	Pax	DRSC02651	1.57e5	1.13e5		5367	4358	inactive
14	Pax	DRSC02652	1.40e5	81141		3820	8011	inactive
15	lectin-21Cb	DRSC00355	89604	91463		2280	2144	inactive
16	Ids	DRSC08222	84033	44107		2579	3601	inactive
17	betaNACtes2	DRSC19792	82092	2.58e5		2631	10820	inactive
18	TwdlO	DRSC16043	1.20e5	1.17e5		1864	3092	inactive
19	RpL35	DRSC18347	27781	59185		2147	6176	active
20	rho	DRSC08734	93536	49715		2773	3808	inactive
21	twr	DRSC12491	65109	74861		2456	2745	inactive
22	CG12688 (retired record)	DRSC17877	68603	5.41e5	2.17e5	2834	3386	inactive
23	CG12688 (retired record)	DRSC17878	96089	5.77e5	2.06e5	3798	4134	inactive
24	Alg14	DRSC19983	62813	1.98e5		1287	7163	inactive
25	smp-30	DRSC17059	1.11e5	93723		4278	2540	inactive
26	CG8952	DRSC20133	77491	75552		2023	1760	inactive
27	mAChR-C	DRSC17890	75127	3.56e5		2619	11786	inactive
28	CG10254	DRSC14153	76963	86280		2994	3041	inactive
29	CG43090	DRSC17439	4.42e5	1.47e5		26812	3169	inactive
30	Phae1	DRSC02554	1.99e5	1.04e5		5349	8704	inactive
31	CG7276	DRSC10797	1.15e5			4008	2944	inactive
32	CG43861	DRSC02170	97335	58253		2528	5024	inactive
33	CG43861	DRSC02308	90800	45477		2279	3824	inactive
34	seq	DRSC06863	64409	32816		1693	2640	inactive
35	CG6015	DRSC15948	59013	51395		4787	3889	active
36	CG4229	DRSC10407	80536	57862		3109	1991	inactive
37	GstE8	DRSC06678	1.28e5	1.07e5		6528	4608	inactive
38	CG13398	DRSC02268	97336	49136		2370	4913	inactive
39	CG12347	DRSC14502	4.75e5	1.02e5		30448	2813	inactive
40	ImpE2	DRSC08665	57419	66518		2619	2561	inactive
41	kni	DRSC11891	89307	78490		2967	2261	inactive
42	esg	DRSC03530	87402	65888		3097	7037	inactive
43	CG9643	DRSC00722	1.10e5	55210		1379	4535	inactive
44	Rab40	DRSC19820	1.19e5	2.63e5		4139	10810	inactive
45	CG13230	DRSC06350	80395	65027		1459	4680	inactive
46	whd	DRSC07351	68636	49620		2835	2080	inactive
47	RpL11	DRSC07537	22557	21561		2212	1779	active
48	CG5245	DRSC15750	68161	1.16e5		2224	5901	inactive
49	CG8668	DRSC03101	73760	64534		3365	2810	inactive
50	colt	DRSC00808	58373	74833		2903	3204	inactive
51	AstC-R1	DRSC10799	1.94e5			7194	4920	inactive
52	Ugt37C2	DRSC02247	84617	55015		2235	5209	inactive
53	CG43691	DRSC06650	1.09e5	99277		2636	6600	inactive
54	CG43691	DRSC06651	83908	73984		1915	5604	inactive
55	CG13005	DRSC19524	78173	2.31e5		2787	8932	inactive
56	CR18275	DRSC18151	1.00e5	2.52e5		2992	11387	inactive
57	CG10208	DRSC14211	5.29e5	1.30e5		25067	4182	inactive
58	Pnn	DRSC16415	68821	1.35e5		2434	3904	inactive
59	ERR	DRSC10840	90172	59440		4116	2824	inactive
60	Pdh	DRSC11249	81860	46618		3505	1820	inactive
61	Cbp53E	DRSC07356	1.34e5	99629		4891	4240	inactive
62	Dad	DRSC16642	1.38e5	1.05e5		6838	5008	inactive
63	CG32767	DRSC18386	57652	1.42e5		3376	9812	active
64	CG7548	DRSC10874	66753	49997		6964	3552	inactive
65	Muc11A	DRSC19498	1.11e5	7.50e5	3.06e5	3127	6439	inactive
66	LysB	DRSC08673	67203	55192		2354	4069	inactive
67	stnB + stnA	DRSC20969	4.85e5	92576		1810	1810	inactive
68	stnB + stnA	DRSC21112	6.34e5	2.45e5		33549	5841	inactive
69	stnB + stnA	DRSC21113	64329	2.21e5		1869	8386	inactive
70	mthl4	DRSC06998	1.33e5	1.00e5		3621	7411	inactive
71	CG5126	DRSC00680	98267	83963		4155	3851	inactive
72	Ypel	DRSC17996	85052	60616		1317	1386	inactive
73	SmydA-7	DRSC07340	1.16e5	89733		5072	3325	inactive
